{"source": "the supplement of paper PMC8728848", "binders": {"B1": {"name": "AT3G44510(29) (Arabidopsis thaliana), F4J341 (protein)", "chain": "MEEHLQGRIKLHDGRYLAYKERGVPKDDAKFTIVLVHGFGSSKDMNFNVSQELVNEIGIYFVLYDRAGYGESDPNPKRSLKSEAYDVQELADGLEIGSRFYLIGISMGSYTVWSCLKHIPQRLAGVAMVAPVVNFRWPSIPKSLMPKDYRREVAKWSVWIANYFPGLLQWLVTQNMFSTTSMLEKNPVYFNDQDIEVLKHIKGFPMLTKEKLRERGVFGTLRSDFLVAFGDWDFDPADLPDPSLSGPEKGSSSVHIWQGYEDKVMPFQLQRCLCRKLPWIRYHEVPKGGHLIVHYDGICDAILKSLLLGEDLPMYKPKAVITEPA"}}, "test_in_all_cases": "glycan array binding signal (z-score within array); higher = stronger binding", "details_in_all_cases": "glycan notation: IUPAC condensed, linker removed", "key": {"[1]": {"target": "Fuc(a1-2)Gal(b1-4)[Fuc(a1-3)]GlcNAc", "how_it_was_run": "(§1)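 From the Consortium for Functional Glycomics database, 3228 arrays were curated, keeping only those whose protein sequence was available. Binding is given as a within-array Z-score averaged across arrays sharing a protein sequence and across linkers. Negative Z-scores can be read as non-binding.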"}, "[2]": {"target": "Fuc(a1-2)Gal(b1-4)[Fuc(a1-3)]GlcNAc(b1-2)Man(a1-3)[Fuc(a1-2)Gal(b1-4)[Fuc(a1-3)]GlcNAc(b1-2)Man(a1-6)]Man(b1-4)GlcNAc(b1-4)[Fuc(a1-6)]GlcNAc", "how_it_was_run": "as §1"}, "[3]": {"target": "Fuc(a1-2)Gal(b1-4)[Fuc(a1-3)]GlcNAc(b1-2)[Fuc(a1-2)Gal(b1-4)[Fuc(a1-3)]GlcNAc(b1-4)]Man(a1-3)[Fuc(a1-2)Gal(b1-4)[Fuc(a1-3)]GlcNAc(b1-2)Man(a1-6)]Man(b1-4)GlcNAc(b1-4)GlcNAc", "how_it_was_run": "as §1"}, "[4]": {"target": "Fuc(a1-2)Gal(b1-4)[Fuc(a1-3)]GlcNAc(b1-3)Gal(b1-4)[Fuc(a1-3)]GlcNAc", "how_it_was_run": "as §1"}, "[5]": {"target": "Fuc(a1-2)Gal(b1-4)[Fuc(a1-3)]GlcNAc(b1-3)Gal(b1-4)[Fuc(a1-3)]GlcNAc(b1-3)Gal(b1-4)[Fuc(a1-3)]GlcNAc", "how_it_was_run": "as §1"}, "[6]": {"target": "Fuc(a1-2)Gal(b1-4)[Fuc(a1-3)]GlcNAc(b1-3)GalNAc", "how_it_was_run": "as §1"}, "[7]": {"target": "Fuc(a1-2)Gal(b1-4)[Fuc(a1-3)]GlcNAc(b1-3)[Neu5Ac(a2-6)Gal(b1-4)GlcNAc(b1-6)]Gal(b1-4)Glc", "how_it_was_run": "as §1"}, "[8]": {"target": "Fuc(a1-2)Gal3S(b1-4)GlcNAc", "how_it_was_run": "as §1"}, "[9]": {"target": "Fuc(a1-2)Gal6S(b1-3)GlcNAc", "how_it_was_run": "as §1"}, "[10]": {"target": "Fuc(a1-2)Gal6S(b1-3)GlcNAc6S", "how_it_was_run": "as §1"}, "[11]": {"target": "Fuc(a1-2)Gal6S(b1-4)Glc", "how_it_was_run": "as §1"}, "[12]": {"target": "Fuc(a1-2)Gal6S(b1-4)Glc6S", "how_it_was_run": "as §1"}, "[13]": {"target": "Fuc(a1-2)[Gal(a1-3)]Gal", "how_it_was_run": "as §1"}, "[14]": {"target": "Fuc(a1-2)[Gal(a1-3)]Gal(b1-3)GalNAc", "how_it_was_run": "as §1"}, "[15]": {"target": "Fuc(a1-2)[Gal(a1-3)]Gal(b1-3)GalNAc(b1-3)Gal(a1-4)Gal(b1-4)Glc", "how_it_was_run": "as §1"}, "[16]": {"target": "Fuc(a1-2)[Gal(a1-3)]Gal(b1-3)GlcNAc", "how_it_was_run": "as §1"}, "[17]": {"target": "Fuc(a1-2)[Gal(a1-3)]Gal(b1-3)GlcNAc(b1-2)Man(a1-3)[Fuc(a1-2)[Gal(a1-3)]Gal(b1-3)GlcNAc(b1-2)Man(a1-6)]Man(b1-4)GlcNAc(b1-4)GlcNAc", "how_it_was_run": "as §1"}, "[18]": {"target": "Fuc(a1-2)[Gal(a1-3)]Gal(b1-3)GlcNAc(b1-2)Man(a1-3)[Fuc(a1-2)[Gal(a1-3)]Gal(b1-3)GlcNAc(b1-2)Man(a1-6)]Man(b1-4)GlcNAc(b1-4)[Fuc(a1-6)]GlcNAc", "how_it_was_run": "as §1"}, "[19]": {"target": "Fuc(a1-2)[Gal(a1-3)]Gal(b1-3)GlcNAc(b1-3)GalNAc", "how_it_was_run": "as §1"}, "[20]": {"target": "Fuc(a1-2)[Gal(a1-3)]Gal(b1-3)GlcNAc(b1-6)GalNAc", "how_it_was_run": "as §1"}, "[21]": {"target": "Fuc(a1-2)[Gal(a1-3)]Gal(b1-4)Glc", "how_it_was_run": "as §1"}, "[22]": {"target": "Fuc(a1-2)[Gal(a1-3)]Gal(b1-4)GlcNAc", "how_it_was_run": "as §1"}, "[23]": {"target": "Fuc(a1-2)[Gal(a1-3)]Gal(b1-4)GlcNAc(b1-2)Man", "how_it_was_run": "as §1"}, "[24]": {"target": "Fuc(a1-2)[Gal(a1-3)]Gal(b1-4)GlcNAc(b1-2)Man(a1-3)[Fuc(a1-2)[Gal(a1-3)]Gal(b1-4)GlcNAc(b1-2)Man(a1-6)]Man(b1-4)GlcNAc(b1-4)GlcNAc", "how_it_was_run": "as §1"}, "[25]": {"target": "Fuc(a1-2)[Gal(a1-3)]Gal(b1-4)GlcNAc(b1-2)Man(a1-3)[Fuc(a1-2)[Gal(a1-3)]Gal(b1-4)GlcNAc(b1-2)Man(a1-6)]Man(b1-4)GlcNAc(b1-4)[Fuc(a1-6)]GlcNAc", "how_it_was_run": "as §1"}, "[26]": {"target": "Fuc(a1-2)[Gal(a1-3)]Gal(b1-4)GlcNAc(b1-3)GalNAc", "how_it_was_run": "as §1"}, "[27]": {"target": "Fuc(a1-2)[Gal(a1-3)]Gal(b1-4)GlcNAc(b1-3)[Fuc(a1-2)[Gal(a1-3)]Gal(b1-4)GlcNAc(b1-6)]GalNAc", "how_it_was_run": "as §1"}, "[28]": {"target": "Fuc(a1-2)[Gal(a1-3)]Gal(b1-4)GlcNAc(b1-6)GalNAc", "how_it_was_run": "as §1"}, "[29]": {"target": "Fuc(a1-2)[Gal(a1-3)]Gal(b1-4)[Fuc(a1-3)]Glc", "how_it_was_run": "as §1"}, "[30]": {"target": "Fuc(a1-2)[Gal(a1-3)]Gal(b1-4)[Fuc(a1-3)]GlcNAc", "how_it_was_run": "as §1"}, "[31]": {"target": "Fuc(a1-2)[Gal(a1-3)]Gal(b1-4)[Fuc(a1-3)]GlcNAc(b1-3)GalNAc", "how_it_was_run": "as §1"}, "[32]": {"target": "Fuc(a1-2)[Gal(a1-4)]Gal(b1-4)GlcNAc", "how_it_was_run": "as §1"}, "[33]": {"target": "Fuc(a1-2)[GalNAc(a1-3)]Gal", "how_it_was_run": "as §1"}, "[34]": {"target": "Fuc(a1-2)[GalNAc(a1-3)]Gal(b1-3)GalNAc(a1-3)[Fuc(a1-2)]Gal(b1-4)GlcNAc", "how_it_was_run": "as §1"}, "[35]": {"target": "Fuc(a1-2)[GalNAc(a1-3)]Gal(b1-3)GalNAc(b1-3)Gal(a1-4)Gal(b1-4)Glc", "how_it_was_run": "as §1"}, "[36]": {"target": "Fuc(a1-2)[GalNAc(a1-3)]Gal(b1-3)GlcNAc", "how_it_was_run": "as §1"}, "[37]": {"target": "Fuc(a1-2)[GalNAc(a1-3)]Gal(b1-3)GlcNAc(b1-2)Man(a1-3)[Fuc(a1-2)[GalNAc(a1-3)]Gal(b1-3)GlcNAc(b1-2)Man(a1-6)]Man(b1-4)GlcNAc(b1-4)GlcNAc", "how_it_was_run": "as §1"}, "[38]": {"target": "Fuc(a1-2)[GalNAc(a1-3)]Gal(b1-3)GlcNAc(b1-2)Man(a1-3)[Fuc(a1-2)[GalNAc(a1-3)]Gal(b1-3)GlcNAc(b1-2)Man(a1-6)]Man(b1-4)GlcNAc(b1-4)[Fuc(a1-6)]GlcNAc", "how_it_was_run": "as §1"}}, "note": "The list shows a part of the results."}
{"binder": "B1", "values": [{"measurement": "glycan array binding signal (z-score)", "setting": "[1]", "value": -0.381}, {"measurement": "glycan array binding signal (z-score)", "setting": "[2]", "value": -0.458}, {"measurement": "glycan array binding signal (z-score)", "setting": "[3]", "value": -0.398}, {"measurement": "glycan array binding signal (z-score)", "setting": "[4]", "value": -0.951}, {"measurement": "glycan array binding signal (z-score)", "setting": "[5]", "value": 0.298}, {"measurement": "glycan array binding signal (z-score)", "setting": "[6]", "value": 0.75}, {"measurement": "glycan array binding signal (z-score)", "setting": "[7]", "value": -0.039}, {"measurement": "glycan array binding signal (z-score)", "setting": "[8]", "value": 3.33}, {"measurement": "glycan array binding signal (z-score)", "setting": "[9]", "value": -0.767}, {"measurement": "glycan array binding signal (z-score)", "setting": "[10]", "value": -0.478}, {"measurement": "glycan array binding signal (z-score)", "setting": "[11]", "value": 1.32}, {"measurement": "glycan array binding signal (z-score)", "setting": "[12]", "value": 0.18}, {"measurement": "glycan array binding signal (z-score)", "setting": "[13]", "value": 2.08}, {"measurement": "glycan array binding signal (z-score)", "setting": "[14]", "value": -0.424}, {"measurement": "glycan array binding signal (z-score)", "setting": "[15]", "value": 0.144}, {"measurement": "glycan array binding signal (z-score)", "setting": "[16]", "value": -0.13}, {"measurement": "glycan array binding signal (z-score)", "setting": "[17]", "value": 0.699}, {"measurement": "glycan array binding signal (z-score)", "setting": "[18]", "value": -0.337}, {"measurement": "glycan array binding signal (z-score)", "setting": "[19]", "value": -0.895}, {"measurement": "glycan array binding signal (z-score)", "setting": "[20]", "value": 0.353}, {"measurement": "glycan array binding signal (z-score)", "setting": "[21]", "value": 0.58}, {"measurement": "glycan array binding signal (z-score)", "setting": "[22]", "value": -0.253}, {"measurement": "glycan array binding signal (z-score)", "setting": "[23]", "value": 0.038}, {"measurement": "glycan array binding signal (z-score)", "setting": "[24]", "value": -0.31}, {"measurement": "glycan array binding signal (z-score)", "setting": "[25]", "value": -0.079}, {"measurement": "glycan array binding signal (z-score)", "setting": "[26]", "value": -0.202}, {"measurement": "glycan array binding signal (z-score)", "setting": "[27]", "value": 0.073}, {"measurement": "glycan array binding signal (z-score)", "setting": "[28]", "value": 0.587}, {"measurement": "glycan array binding signal (z-score)", "setting": "[29]", "value": -0.186}, {"measurement": "glycan array binding signal (z-score)", "setting": "[30]", "value": 0.02}, {"measurement": "glycan array binding signal (z-score)", "setting": "[31]", "value": -0.516}, {"measurement": "glycan array binding signal (z-score)", "setting": "[32]", "value": 0.172}, {"measurement": "glycan array binding signal (z-score)", "setting": "[33]", "value": -0.164}, {"measurement": "glycan array binding signal (z-score)", "setting": "[34]", "value": 0.439}, {"measurement": "glycan array binding signal (z-score)", "setting": "[35]", "value": -0.123}, {"measurement": "glycan array binding signal (z-score)", "setting": "[36]", "value": -0.091}, {"measurement": "glycan array binding signal (z-score)", "setting": "[37]", "value": -0.304}, {"measurement": "glycan array binding signal (z-score)", "setting": "[38]", "value": -0.313}]}
